In assay [1] the target is ANKRD1 (ankyrin repeat domain 1), endogenous in HK-2 cells (human (endogenous in HK-2)) (UniProt Q15327). Nature of the assay: co-IP; endogenous proteins; lysates of HK-2 cells stimulated with 500 µM H2O2 or H/R; IP with ANKRD1 or ACSL3 antibody, control IgG; immunoblot.
For assay [2] the target is unchanged. The experiment in a line: proximity ligation; HK-2 cells, untreated and H2O2-treated.
For assay [3], the target named is ANKRD1, endogenous in mouse kidney (mouse (endogenous in kidney)) (UniProt Q9CR42). Nature of the assay: co-IP; endogenous proteins; I/R-treated mouse renal tissue lysates; IP with ANKRD1 or ACSL3 antibody, control IgG; immunoblot.
The target of assay [4] is TRIM25, endogenous in mouse kidney (mouse (endogenous in kidney)) (UniProt Q61510). The experiment in a line: co-IP; endogenous proteins; mouse kidneys of the sham and the I/R group; ANKRD1 and ACSL3 bound to the same quantity of TRIM25.
The target in assay [5] is FLAG-tagged ANKRD1 (ankyrin repeat domain 1), wild type (human) (UniProt Q15327). The experiment in a line: co-IP; FLAG-ANKRD1 and His-ACSL3 plasmids co-transfected into HK-2 and HEK 293T cells.
For assay [6], the target named is ACSL3 (acyl-coenzyme A synthetase long-chain family member 3), endogenous in HK-2 cells (human (endogenous in HK-2)) (UniProt O95573). Nature of the assay: co-IP; endogenous proteins; lysates of HK-2 cells stimulated with 500 µM H2O2 or H/R; IP with ANKRD1 or ACSL3 antibody, control IgG; immunoblot.
Assay [7] concerns the target TRIM25 (tripartite motif containing 25), endogenous in HK-2 cells (human (endogenous in HK-2)) (UniProt Q14258). Nature of the assay: proximity ligation; HK-2 cells, untreated and H2O2-treated.
For assay [8], the target named is ACSL3, endogenous in mouse kidney (mouse (endogenous in kidney)) (UniProt Q9CZW4). Nature of the assay: co-IP; endogenous proteins; I/R-treated mouse renal tissue lysates; IP with ANKRD1 or ACSL3 antibody, control IgG; immunoblot.
Assay [9] has as its target Myc-tagged TRIM25 (tripartite motif containing 25), exogenous (UniProt Q14258). Nature of the assay: co-IP; exogenous TRIM25 with ANKRD1 or ACSL3 in HK-2 and HEK 293T cells.

By UniProt entry, the sequences of proteins in these tests, tags left out.
UniProt Q15327: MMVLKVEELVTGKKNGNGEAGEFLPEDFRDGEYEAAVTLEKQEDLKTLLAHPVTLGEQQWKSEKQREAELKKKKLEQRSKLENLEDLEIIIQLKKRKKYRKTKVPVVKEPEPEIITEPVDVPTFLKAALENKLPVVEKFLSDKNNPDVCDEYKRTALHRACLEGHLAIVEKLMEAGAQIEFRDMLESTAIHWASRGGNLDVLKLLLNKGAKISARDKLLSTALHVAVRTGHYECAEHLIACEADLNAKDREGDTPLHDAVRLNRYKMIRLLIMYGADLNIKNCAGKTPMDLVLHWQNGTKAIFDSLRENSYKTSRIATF
UniProt Q9CR42: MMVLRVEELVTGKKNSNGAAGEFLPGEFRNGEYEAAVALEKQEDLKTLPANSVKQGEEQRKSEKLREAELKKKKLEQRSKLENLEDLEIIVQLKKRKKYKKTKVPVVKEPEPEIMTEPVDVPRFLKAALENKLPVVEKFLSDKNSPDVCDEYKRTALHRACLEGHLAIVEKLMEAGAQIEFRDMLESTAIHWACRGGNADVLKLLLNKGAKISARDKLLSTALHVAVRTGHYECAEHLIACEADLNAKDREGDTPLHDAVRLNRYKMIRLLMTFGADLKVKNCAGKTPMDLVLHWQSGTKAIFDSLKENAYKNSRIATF
UniProt Q61510: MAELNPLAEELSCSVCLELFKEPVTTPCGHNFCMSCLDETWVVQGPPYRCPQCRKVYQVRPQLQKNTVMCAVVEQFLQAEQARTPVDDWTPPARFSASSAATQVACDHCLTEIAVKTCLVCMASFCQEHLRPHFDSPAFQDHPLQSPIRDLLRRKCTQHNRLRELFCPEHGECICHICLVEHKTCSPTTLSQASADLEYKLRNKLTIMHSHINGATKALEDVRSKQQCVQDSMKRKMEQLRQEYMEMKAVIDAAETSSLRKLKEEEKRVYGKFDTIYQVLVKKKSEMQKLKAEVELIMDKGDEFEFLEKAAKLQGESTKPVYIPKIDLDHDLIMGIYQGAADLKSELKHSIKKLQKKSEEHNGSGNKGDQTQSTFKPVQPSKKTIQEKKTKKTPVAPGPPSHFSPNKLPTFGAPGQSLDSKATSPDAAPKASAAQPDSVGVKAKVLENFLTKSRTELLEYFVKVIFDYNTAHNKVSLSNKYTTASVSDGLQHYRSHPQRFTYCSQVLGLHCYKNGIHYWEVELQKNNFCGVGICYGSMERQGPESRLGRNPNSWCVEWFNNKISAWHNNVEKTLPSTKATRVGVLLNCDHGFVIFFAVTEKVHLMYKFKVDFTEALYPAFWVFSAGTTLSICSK
UniProt O95573: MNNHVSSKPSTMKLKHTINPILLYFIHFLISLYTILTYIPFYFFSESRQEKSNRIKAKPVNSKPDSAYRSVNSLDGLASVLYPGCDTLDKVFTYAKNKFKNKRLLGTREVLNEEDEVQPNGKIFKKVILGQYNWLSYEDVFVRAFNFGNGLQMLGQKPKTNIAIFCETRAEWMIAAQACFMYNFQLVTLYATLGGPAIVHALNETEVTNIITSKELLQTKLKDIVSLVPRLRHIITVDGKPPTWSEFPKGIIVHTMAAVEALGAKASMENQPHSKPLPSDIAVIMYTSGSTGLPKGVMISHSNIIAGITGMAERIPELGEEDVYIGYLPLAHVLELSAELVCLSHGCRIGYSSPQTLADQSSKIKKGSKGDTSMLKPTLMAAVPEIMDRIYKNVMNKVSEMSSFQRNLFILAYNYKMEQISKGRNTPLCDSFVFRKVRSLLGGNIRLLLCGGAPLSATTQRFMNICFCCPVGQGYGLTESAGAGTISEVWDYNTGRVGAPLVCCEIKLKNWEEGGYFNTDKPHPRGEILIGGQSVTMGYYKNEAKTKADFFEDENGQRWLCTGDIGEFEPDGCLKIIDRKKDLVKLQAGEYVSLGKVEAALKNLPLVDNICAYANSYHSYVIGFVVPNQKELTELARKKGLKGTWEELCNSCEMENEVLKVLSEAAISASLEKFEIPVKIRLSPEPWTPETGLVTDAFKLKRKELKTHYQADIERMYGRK
UniProt Q14258: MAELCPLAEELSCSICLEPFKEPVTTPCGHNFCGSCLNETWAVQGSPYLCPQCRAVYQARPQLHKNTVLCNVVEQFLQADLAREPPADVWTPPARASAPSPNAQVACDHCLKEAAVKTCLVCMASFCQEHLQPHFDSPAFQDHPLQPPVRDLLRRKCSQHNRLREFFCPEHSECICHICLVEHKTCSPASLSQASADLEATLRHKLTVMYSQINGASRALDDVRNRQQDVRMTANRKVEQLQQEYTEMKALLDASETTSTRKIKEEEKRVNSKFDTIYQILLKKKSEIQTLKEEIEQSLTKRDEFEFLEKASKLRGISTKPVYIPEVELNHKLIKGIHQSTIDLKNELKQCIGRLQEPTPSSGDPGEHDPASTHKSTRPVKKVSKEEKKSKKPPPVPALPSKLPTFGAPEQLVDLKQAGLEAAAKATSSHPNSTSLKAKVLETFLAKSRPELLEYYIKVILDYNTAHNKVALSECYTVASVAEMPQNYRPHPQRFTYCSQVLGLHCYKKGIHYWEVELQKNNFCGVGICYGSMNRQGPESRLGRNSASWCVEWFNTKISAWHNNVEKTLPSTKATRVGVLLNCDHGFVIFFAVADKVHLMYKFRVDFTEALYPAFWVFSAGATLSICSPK
UniProt Q9CZW4: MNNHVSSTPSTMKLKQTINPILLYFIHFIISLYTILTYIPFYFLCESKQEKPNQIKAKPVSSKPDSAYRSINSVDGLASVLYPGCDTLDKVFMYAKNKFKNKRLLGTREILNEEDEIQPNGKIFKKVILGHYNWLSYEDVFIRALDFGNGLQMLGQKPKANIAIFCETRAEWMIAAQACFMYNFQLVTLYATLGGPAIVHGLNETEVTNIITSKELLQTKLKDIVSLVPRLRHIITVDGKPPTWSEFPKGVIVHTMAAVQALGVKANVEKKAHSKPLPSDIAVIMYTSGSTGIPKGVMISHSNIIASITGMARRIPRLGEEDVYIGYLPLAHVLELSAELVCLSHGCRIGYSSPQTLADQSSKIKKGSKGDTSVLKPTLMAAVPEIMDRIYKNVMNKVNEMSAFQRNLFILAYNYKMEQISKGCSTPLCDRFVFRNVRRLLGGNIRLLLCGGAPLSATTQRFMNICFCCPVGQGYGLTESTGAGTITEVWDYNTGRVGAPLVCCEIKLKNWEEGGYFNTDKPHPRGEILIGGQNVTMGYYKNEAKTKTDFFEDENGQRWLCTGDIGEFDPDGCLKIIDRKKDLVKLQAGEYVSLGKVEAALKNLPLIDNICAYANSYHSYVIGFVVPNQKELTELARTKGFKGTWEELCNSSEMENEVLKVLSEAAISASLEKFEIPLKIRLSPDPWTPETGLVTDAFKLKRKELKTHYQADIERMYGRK

Results are given in words; binding and its absence hold for the method and conditions named. In cells and extracts the contact can be indirect. Some entries that bind do so weakly or less than the wild type.

As to “ACSL3 (acyl-coenzyme A synthetase long-chain family member 3), endogenous in HK-2 cells (from UniProt O95573 1-720)”, the binding result in [1] and in assay [2] was “binds” in each case. Regarding “ACSL3, endogenous in mouse kidney (from UniProt Q9CZW4 1-720)”, the binding entry in [3] and in assay [4] was “binds” throughout. Take “His-tagged ACSL3 (acyl-coenzyme A synthetase long-chain family member 3) (from UniProt O95573 1-720)”: the binding entry in [5] is on record as “binds”. With “ANKRD1 (ankyrin repeat domain 1), endogenous in HK-2 cells (from UniProt Q15327 1-319)”, the binding result in assay [6] and in [7] was “binds” throughout. For the substance “ANKRD1, endogenous in mouse kidney (from UniProt Q9CR42 1-319)”, the binding result in assay [8] and in assay [4] was “binds” in each case. For “FLAG-tagged ANKRD1 (ankyrin repeat domain 1), wild type (from UniProt Q15327 1-319)”, the binding result in [9] is “binds”.
